Paper PMC8043893
Results are given in words; binding and its absence hold for the method and conditions named. Binding seen in cells or lysates may run through a third protein. These calls come from enrichment with a bait or labelling near it, and not all partners need be listed. For part of these data: Tags and fused reporters may be left off the sequences shown.

By UniProt entry, the sequences of proteins in these tests, tags left out.
UniProt Q9GZV5: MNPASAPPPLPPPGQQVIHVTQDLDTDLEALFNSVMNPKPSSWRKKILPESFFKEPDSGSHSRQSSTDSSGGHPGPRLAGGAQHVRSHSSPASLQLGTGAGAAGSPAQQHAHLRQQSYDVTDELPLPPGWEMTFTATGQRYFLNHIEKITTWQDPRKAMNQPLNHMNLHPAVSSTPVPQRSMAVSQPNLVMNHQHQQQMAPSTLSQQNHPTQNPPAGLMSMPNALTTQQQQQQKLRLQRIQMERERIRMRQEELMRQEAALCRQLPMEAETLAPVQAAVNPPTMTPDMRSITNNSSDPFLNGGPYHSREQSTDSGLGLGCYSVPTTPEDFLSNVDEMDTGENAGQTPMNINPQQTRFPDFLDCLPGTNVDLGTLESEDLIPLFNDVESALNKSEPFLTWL
UniProt Q6F5E8: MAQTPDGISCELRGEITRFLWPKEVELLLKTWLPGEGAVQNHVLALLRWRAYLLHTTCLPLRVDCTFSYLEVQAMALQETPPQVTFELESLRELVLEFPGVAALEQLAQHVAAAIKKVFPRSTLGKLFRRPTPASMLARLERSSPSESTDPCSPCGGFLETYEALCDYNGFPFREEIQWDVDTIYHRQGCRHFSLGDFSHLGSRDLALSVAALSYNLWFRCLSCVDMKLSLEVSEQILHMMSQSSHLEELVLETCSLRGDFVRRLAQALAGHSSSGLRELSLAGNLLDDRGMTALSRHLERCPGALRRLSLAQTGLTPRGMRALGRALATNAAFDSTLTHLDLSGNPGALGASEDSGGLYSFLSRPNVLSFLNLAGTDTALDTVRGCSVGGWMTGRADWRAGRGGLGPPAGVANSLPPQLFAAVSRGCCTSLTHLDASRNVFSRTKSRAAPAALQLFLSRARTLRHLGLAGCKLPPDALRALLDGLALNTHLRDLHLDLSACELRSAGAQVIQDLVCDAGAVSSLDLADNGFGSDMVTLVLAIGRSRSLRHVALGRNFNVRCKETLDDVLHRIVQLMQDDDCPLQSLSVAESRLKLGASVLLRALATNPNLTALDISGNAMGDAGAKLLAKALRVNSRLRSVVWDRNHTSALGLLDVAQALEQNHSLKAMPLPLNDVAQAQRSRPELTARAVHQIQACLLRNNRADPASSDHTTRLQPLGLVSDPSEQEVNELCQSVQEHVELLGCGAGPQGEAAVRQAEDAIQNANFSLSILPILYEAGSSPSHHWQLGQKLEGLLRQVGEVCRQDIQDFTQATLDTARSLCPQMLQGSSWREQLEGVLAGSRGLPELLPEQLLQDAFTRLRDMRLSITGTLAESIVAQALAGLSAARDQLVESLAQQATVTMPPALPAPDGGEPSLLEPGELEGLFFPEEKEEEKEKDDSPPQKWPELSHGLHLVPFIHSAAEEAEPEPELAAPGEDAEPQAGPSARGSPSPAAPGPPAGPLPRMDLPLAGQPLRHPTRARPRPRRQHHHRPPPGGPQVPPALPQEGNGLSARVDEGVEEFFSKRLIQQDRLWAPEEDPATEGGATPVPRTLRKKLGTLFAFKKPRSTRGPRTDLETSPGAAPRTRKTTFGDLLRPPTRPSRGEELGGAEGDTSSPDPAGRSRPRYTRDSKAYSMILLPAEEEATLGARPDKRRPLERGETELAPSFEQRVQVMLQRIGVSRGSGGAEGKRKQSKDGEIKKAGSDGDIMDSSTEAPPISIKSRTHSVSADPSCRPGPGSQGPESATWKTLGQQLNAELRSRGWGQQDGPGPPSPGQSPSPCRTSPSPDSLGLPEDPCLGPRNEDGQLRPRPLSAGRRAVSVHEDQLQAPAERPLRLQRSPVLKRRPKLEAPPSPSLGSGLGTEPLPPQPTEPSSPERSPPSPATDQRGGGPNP
UniProt Q9UGP4: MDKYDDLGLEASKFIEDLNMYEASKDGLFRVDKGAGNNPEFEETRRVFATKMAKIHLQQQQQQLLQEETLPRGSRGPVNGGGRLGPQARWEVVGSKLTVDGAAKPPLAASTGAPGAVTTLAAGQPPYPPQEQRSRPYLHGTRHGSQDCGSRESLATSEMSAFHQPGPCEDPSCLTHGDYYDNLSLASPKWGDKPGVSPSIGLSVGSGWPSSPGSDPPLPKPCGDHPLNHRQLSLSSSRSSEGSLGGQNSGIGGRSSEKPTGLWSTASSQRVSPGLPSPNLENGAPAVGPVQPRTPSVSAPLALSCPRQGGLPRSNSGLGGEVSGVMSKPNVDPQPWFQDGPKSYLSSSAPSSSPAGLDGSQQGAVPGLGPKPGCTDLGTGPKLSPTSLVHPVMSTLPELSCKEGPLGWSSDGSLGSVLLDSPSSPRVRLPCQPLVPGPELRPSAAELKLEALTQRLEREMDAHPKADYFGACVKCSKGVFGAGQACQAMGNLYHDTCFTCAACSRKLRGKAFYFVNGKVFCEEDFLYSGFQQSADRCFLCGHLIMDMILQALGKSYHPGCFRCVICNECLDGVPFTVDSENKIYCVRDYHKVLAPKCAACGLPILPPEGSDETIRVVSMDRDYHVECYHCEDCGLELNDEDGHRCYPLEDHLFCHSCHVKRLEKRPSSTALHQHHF
UniProt O75376: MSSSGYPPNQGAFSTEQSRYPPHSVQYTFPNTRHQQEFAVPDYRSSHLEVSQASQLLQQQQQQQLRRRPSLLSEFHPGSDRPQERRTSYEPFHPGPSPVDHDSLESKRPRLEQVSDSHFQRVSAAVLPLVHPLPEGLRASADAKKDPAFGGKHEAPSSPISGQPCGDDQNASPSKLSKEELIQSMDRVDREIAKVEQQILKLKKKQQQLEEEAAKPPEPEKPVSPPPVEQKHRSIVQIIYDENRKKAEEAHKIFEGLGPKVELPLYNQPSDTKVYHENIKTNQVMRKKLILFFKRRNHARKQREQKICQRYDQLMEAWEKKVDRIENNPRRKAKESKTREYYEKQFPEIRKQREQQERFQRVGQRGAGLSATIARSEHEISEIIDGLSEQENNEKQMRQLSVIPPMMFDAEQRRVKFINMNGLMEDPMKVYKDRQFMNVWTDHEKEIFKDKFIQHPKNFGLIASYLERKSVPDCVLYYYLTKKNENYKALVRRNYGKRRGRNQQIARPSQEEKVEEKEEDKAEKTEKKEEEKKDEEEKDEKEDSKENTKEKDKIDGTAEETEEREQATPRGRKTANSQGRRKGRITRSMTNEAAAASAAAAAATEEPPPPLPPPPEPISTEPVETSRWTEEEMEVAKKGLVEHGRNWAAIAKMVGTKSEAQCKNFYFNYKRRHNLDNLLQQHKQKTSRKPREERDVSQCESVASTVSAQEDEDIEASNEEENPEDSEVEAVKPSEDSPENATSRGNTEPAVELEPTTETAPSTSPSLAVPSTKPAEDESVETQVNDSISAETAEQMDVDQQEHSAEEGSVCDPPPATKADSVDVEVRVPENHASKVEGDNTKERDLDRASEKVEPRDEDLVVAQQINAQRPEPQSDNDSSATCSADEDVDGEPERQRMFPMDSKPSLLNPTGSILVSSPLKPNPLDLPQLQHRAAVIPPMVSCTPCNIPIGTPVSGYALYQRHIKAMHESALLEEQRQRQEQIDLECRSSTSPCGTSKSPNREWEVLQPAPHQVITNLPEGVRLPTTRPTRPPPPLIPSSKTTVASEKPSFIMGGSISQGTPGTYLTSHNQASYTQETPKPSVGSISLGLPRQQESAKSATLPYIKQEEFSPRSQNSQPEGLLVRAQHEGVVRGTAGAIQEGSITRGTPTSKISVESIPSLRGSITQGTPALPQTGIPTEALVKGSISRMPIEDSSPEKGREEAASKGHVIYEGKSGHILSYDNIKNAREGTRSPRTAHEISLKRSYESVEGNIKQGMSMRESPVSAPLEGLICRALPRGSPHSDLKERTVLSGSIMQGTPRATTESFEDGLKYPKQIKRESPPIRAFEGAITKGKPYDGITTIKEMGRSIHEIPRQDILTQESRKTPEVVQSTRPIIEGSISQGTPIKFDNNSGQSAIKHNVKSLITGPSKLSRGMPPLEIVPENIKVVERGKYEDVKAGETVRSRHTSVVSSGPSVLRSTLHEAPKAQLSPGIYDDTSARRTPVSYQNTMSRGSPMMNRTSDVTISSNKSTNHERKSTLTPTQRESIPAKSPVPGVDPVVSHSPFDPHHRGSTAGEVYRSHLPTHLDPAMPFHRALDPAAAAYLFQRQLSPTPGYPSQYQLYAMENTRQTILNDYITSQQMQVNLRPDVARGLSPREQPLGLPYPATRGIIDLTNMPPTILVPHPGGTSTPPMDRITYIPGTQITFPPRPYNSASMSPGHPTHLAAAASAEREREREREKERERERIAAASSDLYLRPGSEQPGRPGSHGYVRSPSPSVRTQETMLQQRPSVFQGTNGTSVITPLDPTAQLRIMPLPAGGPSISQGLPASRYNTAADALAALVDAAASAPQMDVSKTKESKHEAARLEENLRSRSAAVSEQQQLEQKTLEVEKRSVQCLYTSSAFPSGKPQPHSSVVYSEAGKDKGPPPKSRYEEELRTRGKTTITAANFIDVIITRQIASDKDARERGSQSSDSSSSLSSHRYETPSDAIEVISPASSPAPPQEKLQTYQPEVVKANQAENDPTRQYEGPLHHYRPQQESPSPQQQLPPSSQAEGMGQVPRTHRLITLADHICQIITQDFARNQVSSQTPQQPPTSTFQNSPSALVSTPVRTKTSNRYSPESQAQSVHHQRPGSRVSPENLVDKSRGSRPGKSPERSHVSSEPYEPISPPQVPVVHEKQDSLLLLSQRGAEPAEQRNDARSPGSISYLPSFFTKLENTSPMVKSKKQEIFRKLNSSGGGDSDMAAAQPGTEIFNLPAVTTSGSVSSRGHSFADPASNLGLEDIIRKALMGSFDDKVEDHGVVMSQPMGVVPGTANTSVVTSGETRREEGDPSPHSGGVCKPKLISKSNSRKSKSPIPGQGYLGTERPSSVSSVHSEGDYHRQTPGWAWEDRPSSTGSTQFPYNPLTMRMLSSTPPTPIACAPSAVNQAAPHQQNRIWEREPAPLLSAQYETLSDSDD

What was measured:
[1] = biological target: MYC-BioID2-TAZ fusion protein (human TAZ/WWTR1) (human) (UniProt Q9GZV5); test: proximity labelling; BioID2 fusion bait expressed by adenovirus (MOI 20) in primary human cardiac fibroblasts (P3); 20 uM biotin; lysis; capture on magnetic streptavidin beads; tryptic digestion and MS/MS; SAINTexpress against untreated and empty-BioID2 controls; cut-off fold change >= 3 and SAINT score >= 0.5
[2] = biological target: T1, MYC-BioID2-SKI fusion protein (human SKI) (human) (UniProt P12755); test: as above
T1 sequence: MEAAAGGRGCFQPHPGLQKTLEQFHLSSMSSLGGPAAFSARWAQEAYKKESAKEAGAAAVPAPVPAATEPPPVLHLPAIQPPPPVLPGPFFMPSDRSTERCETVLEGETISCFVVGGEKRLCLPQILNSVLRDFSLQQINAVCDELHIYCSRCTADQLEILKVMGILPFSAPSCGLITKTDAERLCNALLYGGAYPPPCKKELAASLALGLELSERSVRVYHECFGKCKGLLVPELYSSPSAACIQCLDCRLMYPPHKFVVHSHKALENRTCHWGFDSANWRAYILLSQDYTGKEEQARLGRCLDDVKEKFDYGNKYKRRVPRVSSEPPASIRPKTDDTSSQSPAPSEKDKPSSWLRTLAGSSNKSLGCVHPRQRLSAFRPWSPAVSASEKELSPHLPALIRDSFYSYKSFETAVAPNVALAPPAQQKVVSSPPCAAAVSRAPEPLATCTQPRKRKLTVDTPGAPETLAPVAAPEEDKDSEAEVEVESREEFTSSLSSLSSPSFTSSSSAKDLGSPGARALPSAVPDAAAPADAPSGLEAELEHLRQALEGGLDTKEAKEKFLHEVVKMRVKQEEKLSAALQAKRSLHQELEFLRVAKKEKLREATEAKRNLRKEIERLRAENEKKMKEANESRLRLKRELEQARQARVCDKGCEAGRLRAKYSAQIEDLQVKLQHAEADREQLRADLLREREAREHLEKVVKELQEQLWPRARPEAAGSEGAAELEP

[3] = biological target: T1, MYC-BioID2-SKI fusion protein (human SKI) (human); test: proximity labelling; BioID2 fusion bait in primary human cardiac fibroblasts; repeated streptavidin affinity capture of biotinylated proteins, targets probed by immunoblotting

binding [1] | binding [2] | binding [3] | Substance
binds | binds |  | Capping Protein Regulator and Myosin 1 Linker 2 (from UniProt Q6F5E8 1-1435)
 | binds | binds | LIM Domain-containing protein 1 (from UniProt Q9UGP4 1-676)
 | binds | binds | Nuclear Co-Repressor 1 (from UniProt O75376 1-2440)
